From article PMC10691236 (Proceedings of the National Academy of Sciences of the …, 2023)
Some entries repeat one wording, which the source may state once for all of them.

System: ADP-detection enzymes
Experiment: ADP-Glo counter screen (CDK2 replaced with 10 µM ADP)
Type: biochemical
Settings: CDK2/cyclin E1 replaced with 10 µM ADP

Row | SMILES | increase in luminescence signal relative to the DMSO control | inhibition of ADP detection in ADP-Glo control reactions
1 | Cc1cc(O)c(C)c(O)c1C(=O)Oc1cc(C)c(C(=O)O)c(O)c1C [compound 6, 4-o-demethyl barbatic acid] | 2 fold | do not inhibit the ADP-detection assay
2 | Cc1cc(O)c(C)c2c1Oc1c(C)c(O)cc(C)c1C(=O)O2 [compound 8, 3,8-dihydroxy-1,4,6,9-tetramethyl-dibenzo[b,e][1,4]dioxepin-11-one] | – | do not inhibit the ADP-detection assay
3 | Cc1cc(O)c(C)c2c1C(=O)Oc1c(C)c(O)c(O)c(C)c1O2 [compound 10, roseopurpurin G] | – | do not inhibit the ADP-detection assay
4 | CO[C@@]1(C)[C@H](O)C(O)=C(C)C(=O)[C@@H]1Oc1cc(C)cc(O)c1C [compound 11, aculeatusquinone C] | – | do not inhibit the ADP-detection assay
